{
  "source": "patent US4075194A",
  "about": "(Yeda Research and Development Co., Ltd., priority 1976, dated 1978)",
  "test": "general procedure: Boc solid-phase peptide synthesis; chloromethylated resin (1.2 meq of Cl/g); 0.36 mmol of valine per g",
  "conditions": "whole synthesis",
  "note": "Ends that are not written are not given here.",
  "data": [
    {"sequence": "LNFPTSEITLK", "values": [
      {"measurement": "crude mass", "result": 650, "unit": "mg"},
      {"measurement": "crude yield", "setting": "scale of the general procedure 5 g of chloromethylated resin", "result": 35, "unit": "%"}
    ]}
  ]
}
